Source: paper PMC3124589 (Biochimica et biophysica acta, 2011)

Protein sequences, listed by entry. Tags and fused reporters are not part of them. Lines headed by an entry give the natural chain unless they say otherwise; changes in a name come on top.
UniProt P08432: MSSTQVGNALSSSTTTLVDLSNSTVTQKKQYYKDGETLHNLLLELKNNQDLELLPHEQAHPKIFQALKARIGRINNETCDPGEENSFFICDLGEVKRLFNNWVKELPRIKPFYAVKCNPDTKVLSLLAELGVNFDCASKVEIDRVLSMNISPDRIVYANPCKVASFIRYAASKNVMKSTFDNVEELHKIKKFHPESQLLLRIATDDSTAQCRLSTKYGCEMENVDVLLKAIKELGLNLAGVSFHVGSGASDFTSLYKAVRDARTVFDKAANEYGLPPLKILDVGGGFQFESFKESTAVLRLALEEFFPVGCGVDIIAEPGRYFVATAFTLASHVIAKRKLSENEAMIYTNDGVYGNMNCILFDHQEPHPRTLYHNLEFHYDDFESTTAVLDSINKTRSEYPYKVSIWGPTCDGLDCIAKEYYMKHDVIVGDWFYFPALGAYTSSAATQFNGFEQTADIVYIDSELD

What was measured:
S. cerevisiae ODC [1] = biological target: T1, S. cerevisiae ODC (Saccharomyces cerevisiae, UniProt P08432); assay: biochemical
S. cerevisiae ODC [2] = biological target: T1, S. cerevisiae ODC; details: CO2 Assay; 50 nM enzyme; errors in parentheses

| Structure (SMILES) | Ki (S. cerevisiae ODC [1]) [µM] | Km (S. cerevisiae ODC [2]) [µM] | kcat (S. cerevisiae ODC [2]) |
| --- | --- | --- | --- |
| NCCC[C@@H](N)C(=O)O [D-ornithine] | 380 ± 67 | – | – |
| NCCC[C@H](N)C(=O)O [L-ornithine] | – | 122 | 3.3 (0.2) s^−1 |
